Data taken from US8399416B2, “Method of using heparin binding motif for treating asthma” (National Tsing Hua University, priority 2008, dated 2013).
Like-named read-outs stand apart in the source and are kept apart here. At least one peptide structure holds a part that was inferred or is arguable (an end, a ring closure or a residue). No end group written: not given here.

Legend:
[1] = system: Der p-specific IgE and IgG2a antibodies; assay: Der p-specific plasma IgE and IgG2a ELISA in asthma mouse model; format: in vivo, mice; settings: day 23
[2] = system: peri-bronchiolar and alveolar inflammation; format: in vivo, mice
Excerpt: FIG. 15. Tissue pathology staining in mice. 5-μm formalin-fixed lung sections were stained with H & E in (A) control (B) mIT, (C) eIN, (D) eIN+mIT, (E) mIT+eIN and (F) eIN+mIT+eIN mice. (G) Peribronchial and alveolar inflammation scores.
Animals Study protocol Female Balb/c mice 8 weeks of age were obtained from the National Laboratory Breeding Research Center in Taiwan and were raised in a specific pathogen-free environment. The mice were divided into six groups: (1) control, (2) mite intra-tracheal (mIT) alone, (3) ECP^32-41 (SEQ ID NO: 9) intranasal, (eIN) alone, (4) pre-treated group: eIN+mIT, (5) post-treated group: mIT+eIN and (6) pre+post-treated group eIN+mIT+eIN. Mite crude extract allergen (1.6 μg/μl) was prepared and well emulsified in complete Freund's adjuvant (CFA; Sigma, St Louis, Mo., USA) at a ratio of 1:1 at 4° C. The mIT, eIN and eIN+mIT groups were immunized subcutaneously with 50 μl emulsified mite protein on day 1 and day 8.
Ten microliter of mite crude extract allergen (5 μg/μl), dissolved in PBS, and was used for each mouse on day 15. Each mouse was anesthetized for about 1 min. With the exception of control group, all groups receiving mIT were immunized with mite crude extract allergen on day 1 and day 8, then mite crude extract allergen intra-tracheally on day 15. Ten microliters of ECP^32-41 (SEQ ID NO: 9) (20 μM) was then administered intranasally to mice. Groups 3 and 6 received eIN from day 1 to 22, group 4: day 1 to 15 (before mIT), and group 5: day 15 (post-mIT) to day 22. Then mice were sacrificed on day 23. The animal use protocol was reviewed and approved by the Institutional Animal Care and Use Committee (IACUC Approval No: La-95279).
Histopathological analysis Lung sections stained with hematoxylin and eosin (H&E) were assigned a unit value for alveolar, peri-bronchiolar and total inflammation by computing the means of three independent scores for three randomly selected view-fields. Each section was interpreted by two physicians (Fu L S and Lin H K) independently and scoring system for airway inflammation was applied (Ford, J. G., Rennick, D., Donaldson, D. D., Venkayya, R., McArthur, C., Hansell, E., Kurup, V. P., Warnock, M., and Grunig, G. (2001) J Immunol 167, 1769-1777). Total inflammatory scores were determined as the sum of the peri-bronchiolar and alveolar inflammatory scores.
To determine whether suppression of airway cellular infiltration represented a more general down-modulation of pathology, lung histological sections were compared in six groups of mice. Haematoxylin and eosin (H & E) staining was used to characterize peri-bronchiolar and alveolar inflammation.

Sequence: NYRWRCKNQN [ECP^32-41]
- mite-specific plasma IgE ([1]; eIN+mIT versus mIT): mIT group had significantly higher IgE than
- mite-specific plasma IgG2a ([1]; eIN+mIT versus mIT): lower IgG2a than mIT group
- mite-specific plasma IgE ([1]; eIN+mIT+eIN versus mIT): mIT group had significantly higher IgE than
- mite-specific plasma IgG2a ([1]; eIN+mIT+eIN versus mIT): much lower IgG2a than mIT group
- mite-specific plasma IgE ([1]; mIT+eIN versus mIT): mIT group had significantly higher IgE than
- mite-specific plasma IgG2a ([1]; mIT+eIN versus mIT): much lower IgG2a than mIT group
- tissue inflammation (H&E) ([2]; eIN+mIT): greatly reduced
- suppression of peri-bronchiolar and alveolar inflammation versus eIN+mIT and mIT+eIN ([2]; eIN+mIT+eIN): more potently suppressive effect
- tissue inflammation (H&E) ([2]; eIN+mIT+eIN): greatly reduced
- peri-bronchial pathology versus mIT group ([2]; eIN+mIT+eIN, p<0.0001): significantly milder than mIT group
- alveolar score versus mIT group ([2]; eIN+mIT+eIN, p=0.009): lower than that of mIT group
- tissue inflammation (H&E) ([2]; mIT+eIN): greatly reduced
